Data on one molecule can be found in publication doi:10.1101/2024.04.22.590536 (bioRxiv, 2024).

What all share (assay): two-hybrid
The target of test [1] is T1, ifh1-2 fused to the GAL4 DNA binding domain (S. cerevisiae) (UniProt P39520).
T1 sequence: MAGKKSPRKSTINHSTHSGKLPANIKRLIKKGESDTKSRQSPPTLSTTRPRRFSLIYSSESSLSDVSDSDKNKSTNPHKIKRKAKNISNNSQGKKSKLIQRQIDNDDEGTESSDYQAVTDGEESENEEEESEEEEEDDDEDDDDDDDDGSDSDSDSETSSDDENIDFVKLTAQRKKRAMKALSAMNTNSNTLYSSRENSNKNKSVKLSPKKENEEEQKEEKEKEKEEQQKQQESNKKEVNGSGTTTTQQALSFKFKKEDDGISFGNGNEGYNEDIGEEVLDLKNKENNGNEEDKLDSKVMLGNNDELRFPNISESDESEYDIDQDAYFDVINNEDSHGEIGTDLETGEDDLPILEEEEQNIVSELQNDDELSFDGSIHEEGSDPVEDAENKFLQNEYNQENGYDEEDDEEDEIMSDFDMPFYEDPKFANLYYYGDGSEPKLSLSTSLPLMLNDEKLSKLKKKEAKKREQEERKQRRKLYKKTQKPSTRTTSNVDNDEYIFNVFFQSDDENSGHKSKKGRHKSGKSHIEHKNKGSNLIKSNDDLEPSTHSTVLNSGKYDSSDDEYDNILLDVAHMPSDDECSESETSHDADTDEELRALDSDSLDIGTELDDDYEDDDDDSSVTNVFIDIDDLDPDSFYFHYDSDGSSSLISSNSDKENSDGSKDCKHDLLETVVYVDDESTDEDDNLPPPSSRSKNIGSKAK

In test [2] the target is T2, Rrp7 fused to the GAL4 DNA binding domain (S. cerevisiae) (UniProt P25368).
T2 sequence: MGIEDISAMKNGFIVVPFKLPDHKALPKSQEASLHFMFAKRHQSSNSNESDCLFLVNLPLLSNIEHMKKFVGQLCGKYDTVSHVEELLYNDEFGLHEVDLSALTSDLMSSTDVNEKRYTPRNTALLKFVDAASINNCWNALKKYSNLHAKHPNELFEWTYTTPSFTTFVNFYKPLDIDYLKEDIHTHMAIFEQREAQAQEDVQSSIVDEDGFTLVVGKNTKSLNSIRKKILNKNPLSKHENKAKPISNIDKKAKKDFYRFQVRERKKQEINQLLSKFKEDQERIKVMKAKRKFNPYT

Test [3] concerns the target T3, Utp18 fused to the GAL4 DNA binding domain (S. cerevisiae) (UniProt P40362).
T3 sequence: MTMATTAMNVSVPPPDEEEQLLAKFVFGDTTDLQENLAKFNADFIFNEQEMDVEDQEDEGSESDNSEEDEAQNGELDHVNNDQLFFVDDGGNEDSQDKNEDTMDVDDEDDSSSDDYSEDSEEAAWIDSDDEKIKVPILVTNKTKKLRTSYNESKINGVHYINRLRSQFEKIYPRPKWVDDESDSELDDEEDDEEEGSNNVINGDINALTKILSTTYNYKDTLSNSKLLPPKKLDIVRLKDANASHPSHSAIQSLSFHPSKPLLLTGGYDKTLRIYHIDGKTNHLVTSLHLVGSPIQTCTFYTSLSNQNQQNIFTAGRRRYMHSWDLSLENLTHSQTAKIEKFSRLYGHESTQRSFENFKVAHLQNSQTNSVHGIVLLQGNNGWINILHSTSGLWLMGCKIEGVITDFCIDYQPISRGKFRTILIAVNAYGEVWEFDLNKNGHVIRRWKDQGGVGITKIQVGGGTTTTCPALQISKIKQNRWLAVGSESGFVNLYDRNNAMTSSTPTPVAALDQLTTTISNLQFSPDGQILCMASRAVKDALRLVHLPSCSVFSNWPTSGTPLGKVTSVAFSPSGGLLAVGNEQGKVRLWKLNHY

Test [4] concerns the target T4, Noc4 fused to the GAL4 DNA binding domain (S. cerevisiae) (UniProt Q06512).
T4 sequence: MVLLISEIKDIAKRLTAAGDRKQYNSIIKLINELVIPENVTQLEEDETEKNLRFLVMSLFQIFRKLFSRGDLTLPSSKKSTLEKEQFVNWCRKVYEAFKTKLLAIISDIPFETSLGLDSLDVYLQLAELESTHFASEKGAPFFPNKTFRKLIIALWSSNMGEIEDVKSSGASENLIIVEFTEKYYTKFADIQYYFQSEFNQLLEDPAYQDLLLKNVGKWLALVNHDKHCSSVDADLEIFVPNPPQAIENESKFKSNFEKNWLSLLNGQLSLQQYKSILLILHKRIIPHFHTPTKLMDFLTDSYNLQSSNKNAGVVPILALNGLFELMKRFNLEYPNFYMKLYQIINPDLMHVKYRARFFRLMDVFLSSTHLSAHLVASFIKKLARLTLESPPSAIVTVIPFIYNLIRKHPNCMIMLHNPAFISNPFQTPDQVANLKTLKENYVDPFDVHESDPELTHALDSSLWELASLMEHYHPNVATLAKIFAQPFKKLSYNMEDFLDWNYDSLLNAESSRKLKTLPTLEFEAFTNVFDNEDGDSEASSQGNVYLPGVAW

Results are given in words; binding and its absence hold for the method and conditions named. Some entries that bind do so weakly or less than the wild type. Where a sequence is shown, tags or fusion partners need not be part of it.

B1: Stm1 fused to the GAL4 activation domain (protein, UniProt P39015 1-273)
chain: MSNPFDLLGNDVEDADVVVLPPKEIVKSNTSSKKADVPPPSADPSKARKNRPRPSGNEGAIRDKTAGRRNNRSKDVTDSATTKKSNTRRATDRHSRTGKTDTKKKVNQGWGDDKKELSAEKEAQADAAAEIAEDAAEAEDAGKPKTAQLSLQDYLNQQANNQFNKVPEAKKVELDAERIETAEKEAYVPATKVKNVKSKQLKTKEYLEFDATFVESNTRKNFGDRNNNSRNNFNNRRGGRGARKGNNTANATNSANTVQKNRNIDVSNLPSLA
Consider B1, for which the binding entry in test [1] is reported as “no binding”; in test [2], “binds”; in test [3] it was “binds”; in test [4] it was “binds”.
